Literature values, collected in patent US8551721B2, “Bioluminescent detection of cyanohydroxy benzothiazole compounds” (Promega Corporation, priority 2008, dated 2013).
At least one structure is not confirmed: it was looked up by name or label, or the drawing left a doubt.

Tested on: UGT isozymes
Details: isozymes currently reported in the literature to be modulated by the compound; cited from earlier work

SMILES | Isozymes Modulated
O=C1C(CC[S+]([O-])c2ccccc2)C(=O)N(c2ccccc2)N1c1ccccc1 (centres unmarked) [Sulfinpyrazone] | 1A1, 1A7, 1A8, 1A9, 1A10, others to a lesser
CCCC(CCC)C(=O)O [Valproate] | 2B7 and 2B15, some others to a lesser extent
